{"sequences": {"note": "Sequences of proteins named here, by UniProt entry; tags and fusion partners are left off. A change or cut given only in a name is not applied to a line headed by its entry.", "UniProt Q9UNA4": "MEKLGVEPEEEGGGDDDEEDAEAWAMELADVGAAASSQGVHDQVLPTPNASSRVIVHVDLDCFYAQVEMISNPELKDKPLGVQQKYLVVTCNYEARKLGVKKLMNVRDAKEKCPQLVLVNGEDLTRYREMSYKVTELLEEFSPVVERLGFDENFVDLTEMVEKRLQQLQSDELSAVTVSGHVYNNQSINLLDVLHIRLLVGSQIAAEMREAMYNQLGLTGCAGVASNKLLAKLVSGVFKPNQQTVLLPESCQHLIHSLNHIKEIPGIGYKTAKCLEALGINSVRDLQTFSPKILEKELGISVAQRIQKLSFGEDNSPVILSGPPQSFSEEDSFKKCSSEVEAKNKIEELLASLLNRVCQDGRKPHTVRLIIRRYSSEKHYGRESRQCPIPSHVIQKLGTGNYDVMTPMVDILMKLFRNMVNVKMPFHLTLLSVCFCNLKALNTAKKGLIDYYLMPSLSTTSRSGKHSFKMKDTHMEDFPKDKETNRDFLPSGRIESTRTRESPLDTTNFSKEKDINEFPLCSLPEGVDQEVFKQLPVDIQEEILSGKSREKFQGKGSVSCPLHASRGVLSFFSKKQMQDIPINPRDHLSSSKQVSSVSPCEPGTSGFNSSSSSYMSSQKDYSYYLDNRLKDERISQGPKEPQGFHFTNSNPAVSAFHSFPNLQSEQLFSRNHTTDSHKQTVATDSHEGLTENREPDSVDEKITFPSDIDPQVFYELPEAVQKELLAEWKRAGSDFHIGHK"}, "source": "PubChem BioAssay AID588590", "about": "(National Center for Advancing Translational Sciences (NCATS), 2011)", "note": "Several values for one entry are separate records, joined by “and”; a condition that tells them apart may be missing. Equal entries are not always repeated. Among all 390,000 compounds or so, about 4,000 (1%) were called active. Inconclusive means that the source gave no clear call. Such entries were picked first, then a sample of the others. Calls come from the whole dose curve; as a rule, active = well fitted inhibition curve with a large enough effect; inconclusive = small, poorly fitted or top-dose-only effect, or another doubt; inactive = no such curve, though single readings can be large or run the other way. Potencies beside an inconclusive call are fits to weak or partial responses and may not hold up. Potency is the fitted concentration of half-maximal effect.", "data": [{"molecular_target": "DNA polymerase iota (Homo sapiens) (UniProt Q9UNA4)", "assay": "qHTS for Inhibitors of Polymerase Iota", "settings": "Pol iota fluorescent replication assay, 10 min; series mostly up to 115 µM", "procedure,_shortened": "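Pol iota at 10 nM preincubated 15 min with compounds at room temperature; reaction started with fluorescent substrate, 50 nM final. Fluorescence read kinetically at 0 and 10 min; buffer-only wells as negative control.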", "values": [{"compound": "Cc1[nH]c2c(C)cccc2c1CCNC(=O)c1cc2ccccc2oc1=O", "Potency": "inconclusive: 12.6 µM [inhibitor, partial curve]"}, {"compound": "COc1ccc(-c2nc3ccccc3c(C(=O)Nc3ccc(S(=O)(=O)Nc4cc(C)on4)cc3)c2C)cc1", "Potency": "inconclusive: 22.4 µM [inhibitor, full curve, poor fit]"}, {"compound": "CCc1cccc(C)c1Nc1c(-c2cccc(O)c2)nc2sccn12", "Potency": "inconclusive: 1.78 µM [inhibitor, partial curve, poor fit]"}, {"compound": "Cc1cc2c(c(/C=C/C(=O)c3ccccc3)c1)OC1(C=C2)Oc2ccccc2C(=O)N1C", "note": "(centres undefined)", "Potency": "inconclusive: 70.8 µM [inhibitor, single point]"}, {"compound": "CCNC(=O)Oc1ccc[nH]c1=O", "Potency": "inconclusive: 11.2 µM [inhibitor, full curve, poor fit]"}, {"compound": "CCOc1cc(NC(=O)c2ccco2)c(OCC)cc1NC(=O)c1cc(OC)c(OC)c(OC)c1", "Potency": "inactive"}, {"compound": "Cc1ccc(-c2cc(C(=O)NCCCn3ccnc3)c3cc(Br)ccc3n2)o1", "Potency": "inconclusive: 100 µM [inhibitor, partial curve, poor fit]"}, {"compound": "COc1ccc2c(c1)CCc1c-2nc2ccccc2c1N1CCOCC1", "Potency": "inactive"}, {"compound": "CCc1ccc(CNC(=O)c2cc3c(s2)-c2ccccc2OC3)cc1", "Potency": "active: 79.4 µM"}, {"compound": "O=C(COC(=O)CC1c2ccccc2CCN1S(=O)(=O)c1ccccc1)Nc1ccccc1", "note": "(centres undefined)", "Potency": "inconclusive: 126 µM [inhibitor, single point]"}, {"compound": "N#Cc1c(-c2cccs2)nc(SCc2ccc(Cl)cc2)[nH]c1=O", "Potency": "inconclusive: 39.8 µM [inhibitor, single point]"}, {"compound": "COc1cc(C=C2C(=O)OC(C)(C)OC2=O)cc(Cl)c1OCC(=O)Nc1ccccc1", "Potency": "inconclusive: 56.2 µM [inhibitor, partial curve, poor fit]"}, {"compound": "Cc1ccc(-n2c(SCc3cc(=O)n4ccsc4n3)nnc2-c2cccnc2)c(C)c1", "Potency": "inconclusive: 63.1 µM [inhibitor, partial curve, poor fit]"}, {"compound": "Cc1cccc(NC(=O)CSc2nnc(-c3cc(C)n(-c4ccccc4)c3C)o2)c1C", "Potency": "inconclusive: 3.55 µM [inhibitor, full curve, poor fit]"}, {"compound": "C=CCc1cc(OC)ccc1OCC(O)CN1CCN(c2ccc(OC)cc2)CC1", "note": "(centres undefined)", "Potency": "inconclusive: 12.6 µM [inhibitor, partial curve] and inconclusive: 10 µM [inhibitor, partial curve]"}, {"compound": "Cc1ccc(NC(=O)CCNS(=O)(=O)c2ccc(OC(F)(F)F)cc2)c(O)c1", "Potency": "inactive"}, {"compound": "COc1ccc(C2/C(=C(\\O)c3ccc4c(c3)CC(C)O4)C(=O)C(=O)N2Cc2cccnc2)c(OC)c1", "note": "(centres undefined)", "Potency": "inactive"}, {"compound": "O=C(N/N=C/c1ccccn1)c1ccc(Br)o1", "Potency": "inconclusive: 2.82 µM [inhibitor, full curve, poor fit]"}, {"compound": "COc1ccc(CNC(=O)Cn2nc(C)c3c(C)n(-c4ccc(C)cc4)nc3c2=O)cc1OC", "Potency": "inconclusive: 31.6 µM [inhibitor, single point]"}, {"compound": "O=C(CN1CC[n+]2c(-c3ccccc3)csc21)c1ccc(Br)cc1", "Potency": "inactive"}, {"compound": "Cc1ccc(/C=N/NC(=O)c2ccc(-n3cccc3)cc2)o1", "Potency": "inconclusive: 89.1 µM [inhibitor, single point]"}, {"compound": "CCOC(=O)C1CSc2[nH]c(=O)sc2C1c1ccccc1", "note": "(centres undefined)", "Potency": "inconclusive: 11.2 µM [inhibitor, full curve]"}, {"compound": "CCn1c(SCC(=O)Nc2ccc(C)c(C)c2)nnc1-c1nonc1NC(C)=O", "Potency": "inactive"}, {"compound": "COCCCNc1ncnc2c1nnn2C", "Potency": "inactive"}, {"compound": "COc1ccccc1NC(=O)CC1SC(=N)N(c2ccccc2)C1=O", "note": "(centres undefined)", "Potency": "inactive"}, {"compound": "O=C(Nc1ccc(O)c(C(=O)O)c1)Oc1ccccc1", "Potency": "inconclusive: 39.8 µM [inhibitor, partial curve, poor fit]"}, {"compound": "CCOC(=O)N1CCN(CC(=O)Nc2c(C(=O)OC)[nH]c3ccccc23)CC1", "Potency": "inconclusive: 89.1 µM [inhibitor, single point]"}, {"compound": "Cc1ccc(-c2nc3cnccn3c2Nc2ccc(C(C)C)cc2)o1", "Potency": "inconclusive: 79.4 µM [inhibitor, partial curve, poor fit]"}, {"compound": "CC[C@]1(C(=O)OC)[C@H]2C(=O)N(C)C(=O)[C@H]2[C@H]2CN=C(SCc3ccc(C)cc3)N21", "Potency": "inconclusive: 12.6 µM [inhibitor, partial curve, poor fit]"}, {"compound": "COC(=O)c1cccc(N(C(=O)c2ccco2)C(C(=O)NC2CCCC2)c2ccco2)c1", "note": "(centres undefined)", "Potency": "inconclusive: 35.5 µM [inhibitor, partial curve, poor fit]"}, {"compound": "CC1=C(C(=O)Nc2ccc(C)cc2C)C(c2ccc[nH]2)n2ncnc2N1", "note": "(centres undefined)", "Potency": "inconclusive: 89.1 µM [inhibitor, single point]"}, {"compound": "O=C(COC(=O)CSc1ccccc1)NNC(=O)c1ccc([N+](=O)[O-])cc1", "Potency": "inconclusive: 100 µM [inhibitor, partial curve, poor fit]"}, {"compound": "CC(=O)c1ccc(NC(=O)CN2C(=O)CCc3cc(S(=O)(=O)N4CCC(C)CC4)ccc32)cc1", "Potency": "inconclusive: 89.1 µM [inhibitor, single point]"}, {"compound": "COc1cccc(NC(=O)CCc2nnc3n(CC(C)C)c(=O)c4ccccc4n23)c1", "Potency": "inconclusive: 79.4 µM [inhibitor, single point]"}, {"compound": "O=C(/C=C/c1ccccc1)Nc1nc(-c2cccs2)ns1", "Potency": "inconclusive: 89.1 µM [inhibitor, single point]"}, {"compound": "Cc1cc(C)cc(NS(=O)(=O)c2ccc3[nH]cc(C(=O)NCc4ccco4)c(=O)c3c2)c1", "Potency": "inactive"}, {"compound": "O=C(O)CN(c1ccccn1)S(=O)(=O)c1ccc(Cl)cc1", "Potency": "inconclusive: 28.2 µM [inhibitor, single point]"}, {"compound": "Cc1ccnc(NC(=O)c2cc3ccccc3o2)c1", "Potency": "inactive"}, {"compound": "N#C/C(=C\\c1ccccc1F)c1nc2ccccc2c(=O)[nH]1", "Potency": "inconclusive: 79.4 µM [inhibitor, single point]"}, {"compound": "CNS(=O)(=O)c1cccc(C(=O)OC2CCOC2=O)c1", "note": "(centres undefined)", "Potency": "inactive"}, {"compound": "CCOC(=O)C1=C(C)N=C2SC(C(=O)OC)=CC(=O)N2C1c1ccc(OC)cc1", "note": "(centres undefined)", "Potency": "active: 89.1 µM"}, {"compound": "Cc1c(C)c(C)c(/C=C/c2ccnc3ccccc23)c(C)c1C", "Potency": "inactive"}, {"compound": "Cn1c(=O)c(C(=O)COC(=O)c2cc(C3CC3)nc3ccccc23)c(N)n(Cc2ccccc2)c1=O", "Potency": "inactive"}, {"compound": "O=[N+]([O-])c1nn(-c2ccc3c(c2)OCCO3)n(O)c1=NCCCO", "Potency": "inconclusive: 3.55 µM [inhibitor, partial curve, poor fit]"}, {"compound": "CCCCCC(=O)Cc1cc(O)cc2c1C(=O)Oc1cc(O)c(C(=O)O)c(CCCCC)c1O2", "Potency": "active: 70.8 µM"}, {"compound": "CCCn1ccc2c(OCC(=O)Nc3ccc(C(F)(F)F)cc3)cccc2c1=O", "Potency": "inactive"}, {"compound": "COc1ccc(C(CNC(=O)c2ccc(S(=O)(=O)Nc3cccc(C)c3C)cc2)N2CCOCC2)cc1", "note": "(centres undefined)", "Potency": "inactive"}, {"compound": "CCCn1c(SCC(O)c2ccccc2)nc2ccccc21", "note": "(centres undefined)", "Potency": "inactive"}, {"compound": "Cc1ccc2nc(-c3ccccc3)cc(C(=O)NCC(c3ccco3)N(C)C)c2c1", "note": "(centres undefined)", "Potency": "inconclusive: 25.1 µM [inhibitor, full curve, poor fit]"}, {"compound": "CN(C)c1ccc(-c2nc(-c3cccs3)c(-c3cccs3)[nH]2)cc1", "Potency": "inactive"}, {"compound": "C[n+]1c(-c2ccccc2)cc2c(=Cc3ccc([N+](=O)[O-])cc3)c3ccccc3n21", "Potency": "active: 50.1 µM"}, {"compound": "O=C(Oc1ccc(F)cc1)c1nc(SCc2ccc(F)cc2)ncc1Cl", "Potency": "inactive"}, {"compound": "COC(=O)c1sc(-c2ccccc2)cc1NC(=O)Nc1ccc(Cl)cc1", "Potency": "inactive"}, {"compound": "Cc1ccc(-c2noc(-c3ccccc3NC(=O)C3CC(=O)N(c4ccc(C)cc4)C3)n2)cc1", "note": "(centres undefined)", "Potency": "inconclusive: 20 µM [inhibitor, partial curve, poor fit]"}, {"compound": "O=C(CNS(=O)(=O)c1ccc(Br)cc1Cl)OCC(=O)c1ccc[nH]1", "Potency": "inactive"}, {"compound": "COc1cc(-c2nc(=S)[nH][nH]2)cc(OC)c1OC", "Potency": "inconclusive: 39.8 µM [inhibitor, partial curve, poor fit]"}, {"compound": "O=C1CSC(c2cccnc2)N1c1ccccc1", "note": "(centres undefined)", "Potency": "inactive"}, {"compound": "Nc1nonc1C(=O)NCCN=Cc1cc(Cc2ccccc2)cc(Br)c1O", "Potency": "inconclusive: 14.1 µM [inhibitor, full curve]"}, {"compound": "CC(C)(C)n1ncc2c(=O)n(Cc3ccccc3-c3ccccc3)cnc21", "Potency": "inactive"}, {"compound": "CCOC(=O)c1c(NC(=O)CCCOc2ccc(C(C)(C)C)cc2)sc2c1CCCC2", "Potency": "inconclusive: 89.1 µM [inhibitor, partial curve]"}, {"compound": "S=C(N/N=C/c1ccco1)NC1CC2CCC1C2", "note": "(centres undefined)", "Potency": "inconclusive: 17.8 µM [inhibitor, full curve]"}, {"compound": "CCCC1CC(CCc2ccccc2)OS(=O)(=O)N1", "note": "(centres undefined)", "Potency": "inconclusive: 70.8 µM [inhibitor, single point]"}, {"compound": "C=CCNC(=S)Nc1c(N)n(C)c(=O)n(C)c1=O", "Potency": "inconclusive: 14.1 µM [inhibitor, partial curve, poor fit]"}, {"compound": "CC(=O)Nc1c(S(=O)(=O)c2ccccc2)c2nc3ccccc3nc2n1Cc1ccccc1", "Potency": "inactive"}, {"compound": "COc1ccccc1C(=O)OCc1cc(=O)n2nc(-c3cccs3)sc2n1", "Potency": "active: 79.4 µM"}, {"compound": "O=C(COc1ccccc1C(=O)Nc1ccccc1)Nc1ccc(Br)cc1", "Potency": "inactive"}, {"compound": "CC(OC(=O)CCCC(=O)Nc1ccccc1)C(=O)c1ccccc1", "note": "(centres undefined)", "Potency": "inconclusive: 89.1 µM [inhibitor, single point]"}, {"compound": "O=c1cc(-c2c(O)c3ccccc3n(Cc3ccccc3)c2=O)[nH][nH]1", "Potency": "inconclusive: 10 µM [inhibitor, full curve, poor fit]"}, {"compound": "O=C1C2C3C=CC(C3)C2C(=O)N1Cc1ccccc1", "note": "(centres undefined)", "Potency": "inconclusive: 89.1 µM [inhibitor, partial curve, poor fit]"}]}]}
